Some of the results follow.
How the values were obtained:
Assay in all cases: log2 fold change, soluble protein after heating vs DMSO (PISA); higher = thermal stabilisation; K562 lysate, 10 uM; active = over 0.2 and 3.5 SD of the protein, either way, in both replicates (recomputed)
[1] = compound: NCC(=O)Nc1ccc(-n2nc(C(F)(F)F)cc2-c2ccc3c(ccc4ccccc43)c2)cc1
Outline: (§1)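 Quantification was by TMTpro 16plex LC-MS/MS with equalised channel sums, applied to the supernatant after 21,000xg for 90 min. Samples were crude K562 extract at 1 mg/mL protein in PBS pH 7.4 with 1 mM MgCl2, treated with 10 μM compound for 30 min, heated for 3 min across 48°C-58°C, pooled and brought to 0.5% NP-40 at 4°C. Values are log-two fold changes in thermal stability relative to solvent controls, from duplicates.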

Protein sequences, listed by entry. Tags and fused reporters are not part of them. Lines headed by an entry give the natural chain unless they say otherwise; changes in a name come on top.
UniProt Q9Y5K6, whole entry, looked up: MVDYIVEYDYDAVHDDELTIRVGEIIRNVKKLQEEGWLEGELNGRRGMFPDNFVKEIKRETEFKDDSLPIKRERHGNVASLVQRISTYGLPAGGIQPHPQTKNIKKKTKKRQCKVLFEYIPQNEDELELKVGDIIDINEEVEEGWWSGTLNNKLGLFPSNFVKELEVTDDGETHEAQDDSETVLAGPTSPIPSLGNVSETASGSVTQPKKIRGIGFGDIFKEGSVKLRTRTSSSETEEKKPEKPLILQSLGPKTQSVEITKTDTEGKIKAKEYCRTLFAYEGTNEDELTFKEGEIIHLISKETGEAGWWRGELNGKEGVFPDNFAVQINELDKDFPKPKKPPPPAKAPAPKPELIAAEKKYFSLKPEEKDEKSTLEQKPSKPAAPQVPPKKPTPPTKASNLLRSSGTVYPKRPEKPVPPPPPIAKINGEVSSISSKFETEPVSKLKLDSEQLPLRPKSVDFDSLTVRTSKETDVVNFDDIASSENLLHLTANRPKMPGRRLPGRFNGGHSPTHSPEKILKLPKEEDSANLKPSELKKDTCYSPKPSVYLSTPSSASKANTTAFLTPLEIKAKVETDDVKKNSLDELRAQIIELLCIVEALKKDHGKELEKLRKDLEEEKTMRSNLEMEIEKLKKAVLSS
UniProt P78371: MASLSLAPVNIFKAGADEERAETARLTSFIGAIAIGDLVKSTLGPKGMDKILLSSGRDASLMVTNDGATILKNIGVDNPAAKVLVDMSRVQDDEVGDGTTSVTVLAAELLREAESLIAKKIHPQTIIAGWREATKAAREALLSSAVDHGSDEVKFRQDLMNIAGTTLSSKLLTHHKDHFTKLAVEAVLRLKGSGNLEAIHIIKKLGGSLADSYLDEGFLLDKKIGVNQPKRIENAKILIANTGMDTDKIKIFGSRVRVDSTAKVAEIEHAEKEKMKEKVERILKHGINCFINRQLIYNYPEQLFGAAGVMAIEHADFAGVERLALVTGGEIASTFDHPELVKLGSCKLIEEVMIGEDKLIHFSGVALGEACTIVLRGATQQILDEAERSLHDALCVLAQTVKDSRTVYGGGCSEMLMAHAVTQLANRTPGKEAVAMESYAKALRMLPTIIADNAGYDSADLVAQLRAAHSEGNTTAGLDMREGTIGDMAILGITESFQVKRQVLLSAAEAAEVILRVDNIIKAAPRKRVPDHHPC
UniProt Q9NPF0: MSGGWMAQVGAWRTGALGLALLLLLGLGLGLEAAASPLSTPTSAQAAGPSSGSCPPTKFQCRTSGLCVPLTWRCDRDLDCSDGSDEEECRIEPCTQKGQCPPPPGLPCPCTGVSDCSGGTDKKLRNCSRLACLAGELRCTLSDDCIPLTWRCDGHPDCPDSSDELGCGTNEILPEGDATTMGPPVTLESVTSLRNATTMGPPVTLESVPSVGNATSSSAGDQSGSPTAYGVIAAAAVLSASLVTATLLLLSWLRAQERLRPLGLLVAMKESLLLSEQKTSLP
UniProt P50990: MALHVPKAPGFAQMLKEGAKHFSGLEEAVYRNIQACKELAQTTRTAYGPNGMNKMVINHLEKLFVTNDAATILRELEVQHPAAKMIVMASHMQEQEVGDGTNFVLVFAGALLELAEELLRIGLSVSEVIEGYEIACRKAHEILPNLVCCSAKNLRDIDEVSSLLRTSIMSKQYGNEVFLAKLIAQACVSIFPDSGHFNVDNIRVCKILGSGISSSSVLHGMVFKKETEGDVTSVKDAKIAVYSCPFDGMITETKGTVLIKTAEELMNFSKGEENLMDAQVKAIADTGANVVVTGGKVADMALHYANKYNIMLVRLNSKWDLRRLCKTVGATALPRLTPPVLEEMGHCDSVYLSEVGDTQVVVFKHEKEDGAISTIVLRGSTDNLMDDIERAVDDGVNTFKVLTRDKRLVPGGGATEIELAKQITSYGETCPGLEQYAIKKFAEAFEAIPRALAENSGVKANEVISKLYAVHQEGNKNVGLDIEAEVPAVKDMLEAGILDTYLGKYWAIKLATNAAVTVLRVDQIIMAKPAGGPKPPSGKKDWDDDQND
UniProt Q8TD31: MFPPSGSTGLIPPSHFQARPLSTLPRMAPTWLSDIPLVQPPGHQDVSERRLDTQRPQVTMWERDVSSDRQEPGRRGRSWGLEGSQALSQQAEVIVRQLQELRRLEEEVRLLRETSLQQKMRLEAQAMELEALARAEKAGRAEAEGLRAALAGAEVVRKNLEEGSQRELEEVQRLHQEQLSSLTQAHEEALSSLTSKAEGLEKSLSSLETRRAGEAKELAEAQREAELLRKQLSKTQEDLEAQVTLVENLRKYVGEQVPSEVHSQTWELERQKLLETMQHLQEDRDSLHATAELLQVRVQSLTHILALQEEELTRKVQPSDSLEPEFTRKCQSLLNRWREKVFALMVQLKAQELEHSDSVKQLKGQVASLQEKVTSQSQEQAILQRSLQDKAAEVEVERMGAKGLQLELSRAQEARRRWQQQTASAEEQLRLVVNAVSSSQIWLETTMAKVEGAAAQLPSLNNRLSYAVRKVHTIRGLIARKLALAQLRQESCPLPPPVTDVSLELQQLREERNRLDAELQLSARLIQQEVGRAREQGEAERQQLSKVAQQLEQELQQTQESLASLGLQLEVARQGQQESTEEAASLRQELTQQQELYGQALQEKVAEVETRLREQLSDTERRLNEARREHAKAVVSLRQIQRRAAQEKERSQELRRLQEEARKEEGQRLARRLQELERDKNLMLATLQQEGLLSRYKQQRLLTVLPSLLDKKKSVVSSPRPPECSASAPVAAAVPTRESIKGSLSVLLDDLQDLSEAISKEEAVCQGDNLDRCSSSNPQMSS
UniProt O43303: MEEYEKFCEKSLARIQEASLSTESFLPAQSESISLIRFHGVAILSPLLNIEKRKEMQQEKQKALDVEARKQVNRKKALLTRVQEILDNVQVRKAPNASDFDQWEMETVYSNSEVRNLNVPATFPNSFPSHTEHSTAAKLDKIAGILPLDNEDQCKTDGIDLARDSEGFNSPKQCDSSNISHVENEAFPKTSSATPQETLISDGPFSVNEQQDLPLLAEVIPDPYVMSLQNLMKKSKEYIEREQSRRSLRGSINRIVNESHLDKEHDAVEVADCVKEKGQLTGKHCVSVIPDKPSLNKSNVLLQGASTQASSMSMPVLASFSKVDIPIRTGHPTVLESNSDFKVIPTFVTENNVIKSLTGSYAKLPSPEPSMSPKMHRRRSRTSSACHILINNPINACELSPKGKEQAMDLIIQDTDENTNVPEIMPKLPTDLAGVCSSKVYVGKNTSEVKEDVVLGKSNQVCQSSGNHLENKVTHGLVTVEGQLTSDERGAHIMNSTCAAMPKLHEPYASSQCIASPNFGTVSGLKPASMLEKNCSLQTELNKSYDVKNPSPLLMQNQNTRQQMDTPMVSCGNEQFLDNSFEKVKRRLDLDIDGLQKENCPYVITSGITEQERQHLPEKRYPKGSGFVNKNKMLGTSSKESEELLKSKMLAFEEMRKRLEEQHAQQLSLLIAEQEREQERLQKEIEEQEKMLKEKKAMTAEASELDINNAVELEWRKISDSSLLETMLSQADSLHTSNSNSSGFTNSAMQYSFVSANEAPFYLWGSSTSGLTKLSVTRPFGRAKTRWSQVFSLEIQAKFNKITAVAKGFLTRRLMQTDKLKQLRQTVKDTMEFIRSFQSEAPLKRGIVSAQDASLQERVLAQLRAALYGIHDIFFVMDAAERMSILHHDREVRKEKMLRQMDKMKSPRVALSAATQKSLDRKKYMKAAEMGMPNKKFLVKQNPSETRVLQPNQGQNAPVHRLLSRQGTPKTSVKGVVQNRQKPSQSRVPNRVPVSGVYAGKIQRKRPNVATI
UniProt Q8IUF1: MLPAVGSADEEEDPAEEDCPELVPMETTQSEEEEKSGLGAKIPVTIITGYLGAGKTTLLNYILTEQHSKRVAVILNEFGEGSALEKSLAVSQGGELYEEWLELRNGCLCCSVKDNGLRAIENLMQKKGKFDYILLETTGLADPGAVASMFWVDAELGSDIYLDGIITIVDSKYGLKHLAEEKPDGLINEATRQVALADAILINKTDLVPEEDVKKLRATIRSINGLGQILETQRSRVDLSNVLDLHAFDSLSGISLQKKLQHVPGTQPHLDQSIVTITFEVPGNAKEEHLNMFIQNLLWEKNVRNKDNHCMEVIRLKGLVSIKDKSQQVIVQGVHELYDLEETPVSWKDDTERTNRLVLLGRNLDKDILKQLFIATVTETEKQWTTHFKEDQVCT
UniProt P35520: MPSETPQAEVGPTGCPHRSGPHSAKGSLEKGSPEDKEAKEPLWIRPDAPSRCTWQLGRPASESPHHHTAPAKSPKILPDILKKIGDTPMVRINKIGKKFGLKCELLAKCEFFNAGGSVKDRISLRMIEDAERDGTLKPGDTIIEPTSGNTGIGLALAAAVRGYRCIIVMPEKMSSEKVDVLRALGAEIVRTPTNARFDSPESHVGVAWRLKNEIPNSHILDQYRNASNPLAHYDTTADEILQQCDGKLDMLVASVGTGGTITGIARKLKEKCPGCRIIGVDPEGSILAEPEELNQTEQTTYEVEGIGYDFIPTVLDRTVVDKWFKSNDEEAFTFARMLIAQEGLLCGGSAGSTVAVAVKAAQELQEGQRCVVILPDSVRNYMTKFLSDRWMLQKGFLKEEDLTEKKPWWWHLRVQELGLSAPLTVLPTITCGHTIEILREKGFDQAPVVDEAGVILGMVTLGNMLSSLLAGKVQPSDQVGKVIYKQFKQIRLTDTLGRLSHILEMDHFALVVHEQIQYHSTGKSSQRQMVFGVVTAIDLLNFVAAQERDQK

[2] = compound: O=C(CCCCCCC(=O)Nc1ccccc1)NO [vorinostat]
Outline: as §1

[3] = compound: O=C(O)c1ccc2c(c1)nc(Nc1cccc(Cl)c1)c1ccncc12 [silmitasertib]
Outline: as §1

[4] = compound: O=C1NC(=O)C(c2cnc3ccccn23)=C1c1cn2c3c(cc(F)cc13)CN(C(=O)N1CCCCC1)CC2
Outline: as §1

[5] = compound: c1cn2cc(-c3ccc4cn[nH]c4c3)nc(Nc3ccc(N4CCOCC4)cc3)c2n1 [entospletinib]
Outline: as §1

Measured: log2 fold change

CD2AP (UniProt Q9Y5K6)
inactive: [1] 0.011 | [2] 0.053 | [3] -0.027 | [4] 0.003 | [5] 0.002

CBX4 (UniProt O00257)
inactive: [1] -0.048 | [2] 0.134 | [3] -0.032 | [4] 0.046 | [5] 0.099

CCT2 (UniProt P78371)
inactive: [1] -0.005 | [2] 0.057 | [3] -0.005 | [4] 0.013 | [5] 0.016

CD320 (UniProt Q9NPF0)
inactive: [1] -0.008 | [2] 0.062 | [3] 0.053 | [4] -0.018 | [5] -0.087

CCT8 (UniProt P50990)
inactive: [1] 0.007 | [2] 0.022 | [3] -0.011 | [4] 0 | [5] 0.008

CCHCR1 isoform 2 (UniProt Q8TD31)
inactive: [1] -0.022 | [2] -0.004 | [3] -0.064 | [4] 0.032 | [5] -0.079

CCP110 (UniProt O43303)
inactive: [1] -0.033 | [2] -0.102 | [3] -0.131 | [4] -0.124 | [5] 0.045

CBWD2 (UniProt Q8IUF1)
inactive: [1] 0.022 | [2] -0.083 | [3] 0.035 | [4] 0.005 | [5] 0.059

Taken from the entries so far (2 entries):
CCT2 (UniProt P78371)
inactive: [1] -0.005 | [2] 0.057 | [3] -0.005 | [4] 0.013 | [5] 0.016

CD320 (UniProt Q9NPF0)
inactive: [1] -0.008 | [2] 0.062 | [3] 0.053 | [4] -0.018 | [5] -0.087

Further entries follow:

CBS (UniProt P35520)
inactive: [1] -0.049 | [2] 0.013 | [3] 0.008 | [4] -0.042 | [5] 0.015

Reference: the supplement of paper PMC10849652
